Assay results as given in publication doi:10.1101/2020.10.29.360891.
Positions count from the first letter of the chain named. These are yes or no findings as the source states them, for the method shown. In cells and extracts the contact can be indirect. Binding can be weak; no strength is given.

Legend:
LAP-Rab34-L61D (human) = target: T1, LAP-Rab34-L61D (human) (UniProt Q9BZG1); test: co-IP
T1 sequence: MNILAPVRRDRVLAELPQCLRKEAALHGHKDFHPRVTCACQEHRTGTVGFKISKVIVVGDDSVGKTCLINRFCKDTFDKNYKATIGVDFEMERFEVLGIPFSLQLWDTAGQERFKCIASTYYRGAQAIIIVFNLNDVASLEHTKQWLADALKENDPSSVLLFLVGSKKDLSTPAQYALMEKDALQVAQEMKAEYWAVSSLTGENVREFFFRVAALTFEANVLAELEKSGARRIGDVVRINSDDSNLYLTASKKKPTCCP

LAP-Rab34-S166N (human) = target: T2, LAP-Rab34-S166N (human) (UniProt Q9BZG1); test: co-IP
T2 sequence: T1 sequence with D61L, S166N

binding (LAP-Rab34-L61D (human)): binds
binding (LAP-Rab34-S166N (human)): binds
Substance: Rab-GDI (human (endogenous in HEK-293T))
